# The inconclusive results got no clear call from the source; some entries with a clear call stand among them for comparison. A potency beside an inconclusive call is a rough fit, not a confirmed value. The source made the active and inactive calls. The calls were made as follows: active = hit-call score of the fitted dose curve at least 0.9, where 1 is the maximum; inconclusive = response in the unintended direction; inactive = score below 0.9.
# The chains behind the UniProt entries cited, without tags or fusion partners. Where a name states a change or a piece, a line headed by the entry shows the natural chain unless it says otherwise.
# UniProt Q96RI1: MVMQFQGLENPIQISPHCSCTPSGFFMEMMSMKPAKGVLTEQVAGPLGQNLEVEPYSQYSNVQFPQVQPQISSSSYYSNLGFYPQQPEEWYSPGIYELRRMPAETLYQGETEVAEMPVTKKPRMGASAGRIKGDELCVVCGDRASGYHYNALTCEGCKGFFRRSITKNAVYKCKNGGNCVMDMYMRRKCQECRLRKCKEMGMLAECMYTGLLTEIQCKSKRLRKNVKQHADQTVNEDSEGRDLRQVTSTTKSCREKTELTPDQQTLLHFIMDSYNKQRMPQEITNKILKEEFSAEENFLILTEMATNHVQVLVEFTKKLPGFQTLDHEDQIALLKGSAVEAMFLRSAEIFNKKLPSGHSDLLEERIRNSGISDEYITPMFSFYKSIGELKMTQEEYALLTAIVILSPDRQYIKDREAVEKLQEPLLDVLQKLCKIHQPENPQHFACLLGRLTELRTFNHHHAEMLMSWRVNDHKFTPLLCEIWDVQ
# Target: Bile acid receptor (Homo sapiens) (UniProt Q96RI1)
# Assay: NVS_NR_hFXR_Agonist: NovaScreen (NVS) Nuclear Receptor Binding Assay for human Farnesoid X Receptor Agonism (FXR) (AID 2283347)
# Summary of the method: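 Cell-free TR-FRET binding assay with extracted human FXR protein, agonist format, read 1 h after dosing. Primary screen at 25 uM single concentration in duplicate, actives retested in concentration series; gain of signal versus DMSO.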
Structure (SMILES),AC50,outcome
COc1cc([N+](=O)[O-])ccc1N,inconclusive: 25 µM,
O=C1OC2(c3ccccc31)c1cc(Br)c(O)c(Br)c1Oc1c2cc(Br)c(O)c1Br,inconclusive: 24.1 µM,
O=c1c(O)c(-c2ccc(O)cc2O)oc2cc(O)cc(O)c12,inconclusive: 34.7 µM,
Cc1c(C)c2c(c(C)c1O)CCC(C)(COc1ccc(CC3SC(=O)NC3=O)cc1)O2 (stereo unspecified),,inactive
CCc1c(C(=O)NN2CCCCC2)nn(-c2ccc(Cl)cc2Cl)c1-c1ccc(Br)cc1,,inactive
CCCCOC(=O)[C@@H](C)Oc1ccc(Oc2ccc(C(F)(F)F)cn2)cc1,,inactive
CCN(CC)CCNc1ccc(CNC=O)c2sc3ccc(OC)cc3c(=O)c12,inconclusive: 6.99 µM,
N#C[C@@H]1CC(F)(F)CN1C(=O)CNC1CC2CCC(C1)N2c1ncccn1 (stereo partly specified),inconclusive: 25 µM,
CCN(CC)c1ccc2c(-c3ccccc3C(=O)O)c3ccc(=[N+](CC)CC)cc-3oc2c1,inconclusive: 21.3 µM,
CCCCOC(=O)C(C)Oc1ccc(Oc2ccc(C(F)(F)F)cn2)cc1 (stereo unspecified),,inactive
O=S(=O)(O)c1cc(S(=O)(=O)O)c2c(N=Nc3ccccc3)c(O)ccc2c1,inconclusive: 25 µM,

# Another view of some results above.
Structure (SMILES)	AC50	outcome
N#C[C@@H]1CC(F)(F)CN1C(=O)CNC1CC2CCC(C1)N2c1ncccn1 (stereo partly specified)	inconclusive: 25 µM	
CCN(CC)c1ccc2c(-c3ccccc3C(=O)O)c3ccc(=[N+](CC)CC)cc-3oc2c1	inconclusive: 21.3 µM	

# Source: PubChem BioAssay (EPA / NIEHS)
